The list is a part of this screen's results and no random one: it gathers tests that were run many times, whatever their T/C, doses with no T/C, and many T/C values between a quarter and a half above the control. Other doses and runs of a compound stand elsewhere. T/C: endpoint of the treated group in % of that of the vehicle group. Some entries give survivors of the animals treated and no T/C: the source holds a T/C of zero for them, seemingly a mark for toxic or unscored doses. Some survivor counts are full or nearly so, which does not show that the dose was tolerated: the source hardly ever lists a survival T/C far under the control, and the zero likely stands for such cases as well. Counts of survivors are from the toxicity check (mostly the fifth day) where no day follows; animals may have died later. Schedule codes are those of the source, taken here to give the interval after Q, in days (D) or hours (H), and the number of doses after X. Some schedule codes hold Z or #, which are not explained here. Some molecules as drawn cover several salts, stereoisomers or complexes of the source; a dose is that of the sample tested. Where survival is the endpoint, the PubChem record calls one and a half times the control and up active, and a quarter to a half above the control has no call in these data; cut-offs in other NCI protocols can differ. Some entries were tested several times; the results are listed from low to high. Some T/C values are followed by the survivors on the day toxicity was checked, most often the fifth; where none is given, no animal had died by that day.
Tested on: L1210 leukemia ip in BDF1 mice, survival T/C
Experiment: NCI In Vivo Anticancer Drug Screen. Data for tumor model L1210 Leukemia (intraperitoneal) in B6D2F1 (BDF1) mice
Details: T/C endpoint: mean survival time, higher T/C = longer survival
[1] = dose: 400.0 mg/kg/injection, schedule: Q01DX001 (ip), vehicle: saline
[2] = dose: 200.0 mg/kg/injection, schedule: Q01DX001 (ip), vehicle: saline
[3] = dose: 400.0 mg/kg/injection, schedule: Q04DX003 (ip), vehicle: saline with Tween-80
[4] = dose: 200.0 mg/kg/injection, schedule: Q01DX009 (ip), vehicle: Klucel (hydroxypropylcellulose) (HPC)
[5] = dose: 400.0 mg/kg/injection, schedule: Q01DX009 (ip), vehicle: Klucel (hydroxypropylcellulose) (HPC)
[6] = dose: 200.0 mg/kg/injection, schedule: Q01DX001 (ip), vehicle: carboxymethylcellulose (CMC)
[7] = dose: 400.0 mg/kg/injection, schedule: Q01DX001 (ip), vehicle: carboxymethylcellulose (CMC)
[8] = dose: 300.0 mg/kg/injection, schedule: Q01DX001 (ip), vehicle: saline

N=C(N)c1ccc(N=NNc2ccc(C(=N)N)cc2)cc1 (tested in a mixture with another compound)
survivor count [1]: 0 of 6

O=C1CCSc2c1ccc1ccccc21
survivor count [2]: 4 of 4
survivor count [1]: 4 of 4

O=C1C(=C(C(F)(F)F)C(F)(F)F)C2CCC1C2 (centres undefined)
survivor count (dose: 25.0 mg/kg/injection, schedule: Q01DX009 (ip), vehicle: saline with Tween-80): 4 of 6
survivor count (dose: 100.0 mg/kg/injection, schedule: Q04DX003 (ip), vehicle: saline with Tween-80): 0 of 6
survivor count (dose: 200.0 mg/kg/injection, schedule: Q04DX003 (ip), vehicle: saline with Tween-80): 0 of 6
survivor count [3]: 0 of 6

CN1c2ccc(Cl)cc2C2(C(=O)NN)C(C(=O)NN)N(C3CCCCC3)C(=O)C12N (centres undefined)
survivor count (dose: 400.0 mg/kg/injection, schedule: Q01DX009 (ip), vehicle: saline with Tween-80): 1 of 6

CC1=Nc2ccccc2NC(C)(C)C1
survivor count (dose: 400.0 mg/kg/injection, schedule: Q04DX002 (ip), vehicle: saline): 3 of 3

CNC(=O)N(C)N=O
T/C (dose: 25.0 mg/kg/injection, schedule: Q01DX Z (ip), vehicle: carboxymethylcellulose (CMC)): 125 % of control
T/C (dose: 50.0 mg/kg/injection, schedule: Q01DX Z (ip), vehicle: carboxymethylcellulose (CMC)): 136 and 146 % of control

CC(=O)OCC(=O)[C@@]12OC(C)(C)O[C@@H]1C[C@H]1[C@@H]3CC(C=O)=C4C=C(OCCCl)CC[C@]4(C)[C@@]3(F)[C@@H](O)C[C@@]12C
survivor count [4]: 6 of 6
survivor count [5]: 3 of 6

CN(C(=S)Nc1ccccc1)c1cc(N2CCCC2)ccn1
survivor count [1]: 1 of 6

COc1ccc(NC(=O)Oc2ccc(C(C)=O)cc2)cc1
survivor count [4]: 5 of 6
survivor count [5]: 1 of 6

O=NN(CCCl)C(=O)Nc1ccc(Br)cc1
T/C (dose: 3.0 mg/kg/injection, schedule: Q01DX015 (ip), vehicle: carboxymethylcellulose (CMC)): 127 % of control
T/C (dose: 3.75 mg/kg/injection, schedule: Q01DX009 (ip), vehicle: carboxymethylcellulose (CMC)): 130 % of control
T/C (dose: 5.0 mg/kg/injection, schedule: Q01DX009 (ip), vehicle: carboxymethylcellulose (CMC)): 127 % of control
T/C (dose: 5.0 mg/kg/injection, schedule: Q01DX015 (ip), vehicle: carboxymethylcellulose (CMC)): 136 % of control [5 of 6 alive]
T/C (dose: 8.0 mg/kg/injection, schedule: Q01DX009 (ip), vehicle: carboxymethylcellulose (CMC)): 127 % of control
T/C (dose: 8.0 mg/kg/injection, schedule: Q01DX015 (ip), vehicle: carboxymethylcellulose (CMC)): 134 % of control [5 of 6 alive]
T/C (dose: 12.0 mg/kg/injection, schedule: Q01DX015 (ip), vehicle: carboxymethylcellulose (CMC)): 125 and 136 % of control
T/C (dose: 19.0 mg/kg/injection, schedule: Q01DX015 (ip), vehicle: carboxymethylcellulose (CMC)): 133 and 146 % of control
T/C (dose: 29.0 mg/kg/injection, schedule: Q01DX015 (ip), vehicle: carboxymethylcellulose (CMC)): 128 and 148 % of control
T/C (dose: 44.4 mg/kg/injection, schedule: Q01DX001 (ip), vehicle: carboxymethylcellulose (CMC)): 149 % of control
survivor count (dose: 66.0 mg/kg/injection, schedule: Q01DX015 (ip), vehicle: carboxymethylcellulose (CMC)): 6 of 6
T/C (dose: 66.6 mg/kg/injection, schedule: Q01DX001 (ip), vehicle: carboxymethylcellulose (CMC)): 146 % of control
T/C (dose: 100.0 mg/kg/injection, schedule: Q01DX001 (ip), vehicle: carboxymethylcellulose (CMC)): 133 % of control
survivor count (dose: 100.0 mg/kg/injection, schedule: Q01DX015 (ip), vehicle: carboxymethylcellulose (CMC)): 4 of 6
T/C (dose: 150.0 mg/kg/injection, schedule: Q01DX001 (ip), vehicle: carboxymethylcellulose (CMC)): 146 % of control
T/C [6]: 127 % of control
survivor count [7]: 0 of 4

Cn1ccoc1=NC1CCCCC1
survivor count [3]: 5 of 6

CCOP(N)(=S)OCC
survivor count [8]: 2 of 6

COc1cc(C2N=C(N)N=C(N)N2c2ccc(S(N)(=O)=O)cc2)cc(OC)c1OC (centres undefined)
survivor count [8]: 0 of 6

Cc1cc(=O)[nH]c(N/N=C/C(C)C)n1
survivor count (dose: 400.0 mg/kg/injection, schedule: Q04DX003 (ip), vehicle: Klucel (hydroxypropylcellulose) (HPC)): 2 of 6

Cc1[nH]ccc2c(C)c3nc4ccccc4c3cc12
T/C (dose: 10.0 mg/kg/injection, schedule: Q01DX Z (ip), vehicle: carboxymethylcellulose (CMC)): 128 and 132 % of control
T/C (dose: 18.0 mg/kg/injection, schedule: Q01DX Z (ip), vehicle: saline): 130 % of control
T/C (dose: 20.0 mg/kg/injection, schedule: Q01DX Z (ip), vehicle: carboxymethylcellulose (CMC)): 138 % of control
T/C (dose: 21.0 mg/kg/injection, schedule: Q01DX Z (ip), vehicle: carboxymethylcellulose (CMC)): 135 % of control
T/C (dose: 27.0 mg/kg/injection, schedule: Q01DX Z (ip), vehicle: saline): 143 % of control
T/C (dose: 42.0 mg/kg/injection, schedule: Q01DX Z (ip), vehicle: carboxymethylcellulose (CMC)): 141 % of control
T/C (dose: 45.0 mg/kg/injection, schedule: Q04DX003 (ip), vehicle: saline with Tween-80): 143 % of control
T/C (dose: 60.0 mg/kg/injection, schedule: Q01DX Z (ip), vehicle: saline): 125 % of control
T/C (dose: 66.0 mg/kg/injection, schedule: Q04DX003 (ip), vehicle: saline with Tween-80): 136 % of control
T/C (dose: 84.0 mg/kg/injection, schedule: Q01DX Z (ip), vehicle: carboxymethylcellulose (CMC)): 141 % of control
survivor count (dose: 150.0 mg/kg/injection, schedule: Q01DX Z (ip), vehicle: saline): 6 of 6
survivor count (dose: 225.0 mg/kg/injection, schedule: Q04DX003 (ip), vehicle: saline with Tween-80): 5 of 6

Nc1cc(Cl)c(O)c(Cl)c1
survivor count (dose: 100.0 mg/kg/injection, schedule: Q01DX001 (ip), vehicle: saline with Tween-80): 3 of 6
survivor count [6]: 2 of 6
survivor count [2]: 1 of 4
survivor count [7]: 1 of 6
survivor count [1]: 0 of 4
survivor count (dose: 800.0 mg/kg/injection, schedule: Q01DX001 (ip), vehicle: saline): 0 of 4

NS(=O)(=O)c1ccccc1C(=O)O
survivor count (dose: 400.0 mg/kg/injection, schedule: Q01DX009 (ip), vehicle: saline): 4 of 6

CCC[CH2][Sn]1([CH2]CCC)[O]OC(c2ccc(C)cc2)[O]1 (centres undefined)
survivor count (dose: 50.0 mg/kg/injection, schedule: Q01DX009 (ip), vehicle: Klucel (hydroxypropylcellulose) (HPC)): 0 of 3
survivor count (dose: 50.0 mg/kg/injection, schedule: Q04DX002 (ip), vehicle: Klucel (hydroxypropylcellulose) (HPC)): 3 of 3
survivor count (dose: 100.0 mg/kg/injection, schedule: Q04DX002 (ip), vehicle: Klucel (hydroxypropylcellulose) (HPC)): 0 of 3
survivor count (dose: 200.0 mg/kg/injection, schedule: Q04DX002 (ip), vehicle: Klucel (hydroxypropylcellulose) (HPC)): 0 of 3
survivor count (dose: 400.0 mg/kg/injection, schedule: Q04DX002 (ip), vehicle: Klucel (hydroxypropylcellulose) (HPC)): 0 of 3

CC(C)(O)C1C2OC(=O)C1C1(O)CC3OC34C(=O)OC2C14C (centres undefined)
survivor count (dose: 300.0 mg/kg/injection, schedule: Q01DX001 (ip), vehicle: other): 0 of 6

CC(C)(O)C(CO)c1ccccc1 (centres undefined)
survivor count [2]: 5 of 6
survivor count [1]: 0 of 6
